From article PMC5603617

B1: NF-κB p110 subunit (protein, UniProt Q94527-1 1-971)
chain: MNMNQYYDLDNGKNVMFMNDASSTSGYSSSTSPNSTNRSFSPAHSPKTMELQTDFANLNLPGGNSPHQPPMANSPYQNQLLNNGGICQLGATNLINSTGVSFGVANVTSFGNMYMDHQYFVPAPATVPPSQNFGYHQNGLASDGDIKHVPQLRIVEQPVEKFRFRYKSEMHGTHGSLNGANSKRTPKTFPEVTLCNYDGPAVIRCSLFQTNLDSPHSHQLVVRKDDRDVCDPHDLHVSKERGYVAQFINMGIIHTAKKYIFEELCKKKQDRLVFQMNRRELSHKQLQELHQETEREAKDMNLNQVRLCFEAFKIEDNGAWVPLAPPVYSNAINNRKSAQTGELRIVRLSKPTGGVMGNDELILLVEKVSKKNIKVRFFEEDEDGETVWEAYAKFRESDVHHQYAIVCQTPPYKDKDVDREVNVYIELIRPSDDERSFPALPFRYKPRSVIVSRKRRRTGSSANSSSSGTESSNNSLDLPKTLGLAQPPNGLPNLSQHDQTISEEFGREKHLNEFIASEDFRKLIEHNSSDLEKICQLDMGELQHDGHNRAEVPSHRNRTIKCLDDLFEIYKQDRISPIKISHHKVEKWFIEHALNNYNRDTLLHEVISHKKDKLKLAIQTIQVMNYFNLKDVVNSTLNADGDSALHVACQQDRAHYIRPLLGMGCNPNLKNNAGNTPLHVAVKEEHLSCVESFLNGVPTVQLDLSLTNDDGLTPLHMAIRQNKYDVAKKLISYDRTSISVANTMDGNNALHMAVLEQSVELLVLILDAQNENLTDILQAQNAAGHTPLELAERKANDRVVQLLKNVYPEKGELAMTWIPCKVKEEIDSSSDESSDAGQLEIKSEEMDIETKDEDSVELDLSSGPRRQKDESSRDTEMDNNKLQLLLKNKFIYDRLCSLLNQPLGHGSDPQDRKWMQLARQTHLKQFAFIWLGAEDLLDHVKRKGASVEFSTFARALQAVDPQAYALLVNPT
B2: ALG-2 interacting protein X (protein, UniProt Q9VB05 1-836)
chain: MSKFLGVPLKKPSEVDVIKPLNNLIQSTYNGASEEEKGKYGEAVNEFSKQRNTAIWKFFEKYEASLEIVYAYYDQICALETKISVSELQIPFKWKDAFDKGSIFGGKISLTHTSLLYEKVCVLFNIAALQSNIAANQSLDSDDGLKLTIKLLQQSAGIFQYLKGATPAAVPSEPTPDLSQDTLTVLQALMVAQAQEVFILKAIKDNLKDQIIAKLCCQAEESYADVLRAMQKESVRSLWEKEWIPTIAGKQAGFHALTQLYQSLVCRAAKKIGEEIARLRNAIDLFKAAQTRSGNETYLDEYFSRAKRNLTESTKDNEFIYNEIIPELSTLTSPGKAQLAKPLPIAVPLAENFKDIFSSLVPVELHRALTASDMRRNEIVNVEIMKLREATQTLNAVLASLNLPAAVETADGNSGLPPSLKEKANEVRQKGGIENVQTMLKDLPELLNRNREILDETERLLDEERDSDNQLRAQFKDRWTRISSDKLTEMFRTNAKKYREVITNAIEADKVVRQKFEANQKGIQLLSLPPDQIQQSLPSASGSVDPNCSSVQRLKKLMDDVETIKAEREAIESELKGATFNMKDEFLIALQKDGAIDEPALSLARIGQVLNPLQQQVRESVERQQSLVSEIQSAHGAFVSETGSCGSSRDTLYQELATAFDSYIELSGNLQEGTKFYNDLTQLLVVFQNKISDFVFARKTEKEELLKDLTTESSRQACPATPALPSHYASTSGSGSDIPPGSAPSVPPAASTANIPYPAQVQGMPIPYGAQPGVPYPAYVPAPMPQSFNPYATLPYPGNYQYQGFPQGPPPGHYGTYPGSYANQQGGYPNQKPPGW

Target: TnBVANK1 protein, V5-tagged (from pIZT/V5-His-ANK1) (Toxoneuron nigriceps bracovirus (TnBV))
Assay: affinity purification with mass spectrometry; total protein extract of S2 cells stably expressing V5-tagged TnBVANK1, pre-cleaned on underivatised agarose beads; immunoprecipitated overnight on anti-V5 agarose-conjugated antibody; washed with lysis buffer with 150 mmol/l NaCl; eluted with V5 …; SDS-PAGE bands identified by LC-MS/MS; differential analysis against control S2 cells

Binder	binding
B1	binds
B2	binds

No constants are given. Whether binding was seen depends on the method and setting. Binding seen in cells or lysates may run through a third protein. These calls come from enrichment with a bait or labelling near it, and not all partners need be listed.
